Source: PMC4809485
No constants are given. Whether binding was seen depends on the method and setting. In cells and extracts the contact can be indirect. Some entries that bind do so weakly or less than the wild type.

By UniProt entry, the sequences of proteins in these tests, tags left out.
UniProt P87072: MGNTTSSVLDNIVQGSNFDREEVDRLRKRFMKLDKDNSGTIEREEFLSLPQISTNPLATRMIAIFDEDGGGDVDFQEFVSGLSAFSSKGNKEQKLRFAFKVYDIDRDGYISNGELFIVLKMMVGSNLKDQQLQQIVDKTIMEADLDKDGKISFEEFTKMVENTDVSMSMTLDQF
UniProt Q05681: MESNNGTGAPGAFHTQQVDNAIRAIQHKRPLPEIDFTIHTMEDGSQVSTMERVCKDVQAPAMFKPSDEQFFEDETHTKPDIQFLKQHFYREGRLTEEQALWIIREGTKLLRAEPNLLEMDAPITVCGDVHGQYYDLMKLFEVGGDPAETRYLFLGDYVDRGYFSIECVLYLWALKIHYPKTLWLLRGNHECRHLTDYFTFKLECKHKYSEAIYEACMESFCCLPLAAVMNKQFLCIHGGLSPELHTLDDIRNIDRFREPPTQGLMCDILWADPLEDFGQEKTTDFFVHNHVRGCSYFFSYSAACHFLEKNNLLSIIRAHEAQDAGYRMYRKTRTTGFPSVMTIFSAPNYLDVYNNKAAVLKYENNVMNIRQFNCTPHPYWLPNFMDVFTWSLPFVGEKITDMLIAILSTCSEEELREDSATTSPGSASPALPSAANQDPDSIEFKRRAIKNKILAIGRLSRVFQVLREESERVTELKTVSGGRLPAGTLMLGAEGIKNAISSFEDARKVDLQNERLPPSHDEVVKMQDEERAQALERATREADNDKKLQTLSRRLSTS

Target: CNB-1::V5::GFP (calcineurin regulatory subunit B, tagged) (Neurospora crassa) (UniProt P87072)
Experiment: co-IP; whole cell extracts (10 mg protein) of N. crassa forced heterokaryons; GFP-Trap agarose beads, overnight at 4°C; 50 mM Tris-Cl pH 7.5, 1 mM EDTA, 6 mM MgCl2; immunoblot with anti-GFP and anti-S-tag

- binding: binds
Substance: CNA-1::S-tag::RFP (calcineurin catalytic subunit A, tagged) (from UniProt Q05681 1-558) (enzyme)
